Literature values, collected in patent publication US20120270995A1, “AQUEOUS FORMULATIONS INCLUDING DIOXOLANES AS COUPLING AGENTS” (RHODIA POLIAMIDA E ESPECIALIDADES LTDA, priority 2009, published 2012).
At least one compound was matched to its structure with a doubt left.

Conditions: CMR = carcinogenic/mutagenic/reproductively toxic

## CCCCOCCOC(C)=O [Butylglycol acetate]
  CMR: A3
